According to article doi:10.1101/2021.01.04.425182:
Results are given in words; binding and its absence hold for the method and conditions named. Binding can be weak; no strength is given.

Protein sequences, listed by entry. Tags and fused reporters are not part of them. Lines headed by an entry give the natural chain unless they say otherwise; changes in a name come on top.
UniProt P05230: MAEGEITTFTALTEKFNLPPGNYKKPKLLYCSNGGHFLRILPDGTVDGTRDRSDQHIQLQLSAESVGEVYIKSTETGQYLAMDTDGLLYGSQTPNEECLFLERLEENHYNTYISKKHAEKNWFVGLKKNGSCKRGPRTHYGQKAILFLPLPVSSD
UniProt P09038: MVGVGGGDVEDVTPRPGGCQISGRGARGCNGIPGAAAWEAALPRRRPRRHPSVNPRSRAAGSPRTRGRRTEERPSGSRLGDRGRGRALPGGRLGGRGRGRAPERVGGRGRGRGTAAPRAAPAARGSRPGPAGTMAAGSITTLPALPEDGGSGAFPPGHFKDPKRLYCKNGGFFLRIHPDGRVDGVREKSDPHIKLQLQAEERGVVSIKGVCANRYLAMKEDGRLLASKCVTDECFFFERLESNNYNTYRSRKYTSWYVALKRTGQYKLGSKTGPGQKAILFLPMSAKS
UniProt P01137: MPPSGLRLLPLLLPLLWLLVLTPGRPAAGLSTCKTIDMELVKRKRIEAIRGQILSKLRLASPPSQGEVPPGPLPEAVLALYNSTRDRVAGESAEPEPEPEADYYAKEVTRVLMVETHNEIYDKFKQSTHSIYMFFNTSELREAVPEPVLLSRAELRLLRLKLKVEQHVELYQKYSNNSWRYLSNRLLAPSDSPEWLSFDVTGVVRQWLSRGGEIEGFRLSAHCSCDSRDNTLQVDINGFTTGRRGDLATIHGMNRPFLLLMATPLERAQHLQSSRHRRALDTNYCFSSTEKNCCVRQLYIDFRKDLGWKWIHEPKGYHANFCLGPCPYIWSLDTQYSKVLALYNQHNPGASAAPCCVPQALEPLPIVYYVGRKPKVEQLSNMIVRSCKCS

Molecular target: T1, prolargin (PRELP), recombinant human (human) (UniProt P51888)
T1 sequence: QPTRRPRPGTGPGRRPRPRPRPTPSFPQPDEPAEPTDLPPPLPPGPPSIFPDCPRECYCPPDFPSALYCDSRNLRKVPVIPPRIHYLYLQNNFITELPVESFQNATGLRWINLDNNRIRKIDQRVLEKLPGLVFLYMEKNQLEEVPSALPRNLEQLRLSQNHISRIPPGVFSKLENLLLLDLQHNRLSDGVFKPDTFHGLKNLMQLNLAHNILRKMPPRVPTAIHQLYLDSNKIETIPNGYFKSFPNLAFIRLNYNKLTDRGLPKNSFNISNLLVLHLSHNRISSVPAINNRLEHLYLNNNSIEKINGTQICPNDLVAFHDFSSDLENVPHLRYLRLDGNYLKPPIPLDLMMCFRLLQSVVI
Assay: SPR

| binding | Substance |
| --- | --- |
| binds | FGF1 (from UniProt P05230) (ligand) |
| binds | FGF2 (from UniProt P09038) (ligand) |
| binds | TGF-β1 (from UniProt P01137) (ligand) |
